Paper PMC12098688
No constants are given. Whether binding was seen depends on the method and setting. Binding seen in cells or lysates may run through a third protein. Some binding calls cover weakened binding; strength is not graded here.

Chains of the proteins cited; added tags and fusions are not shown. Residues count along the entry.
UniProt Q15843, residues 1-76: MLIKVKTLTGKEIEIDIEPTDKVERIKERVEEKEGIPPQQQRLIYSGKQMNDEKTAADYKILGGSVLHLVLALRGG
UniProt P61586: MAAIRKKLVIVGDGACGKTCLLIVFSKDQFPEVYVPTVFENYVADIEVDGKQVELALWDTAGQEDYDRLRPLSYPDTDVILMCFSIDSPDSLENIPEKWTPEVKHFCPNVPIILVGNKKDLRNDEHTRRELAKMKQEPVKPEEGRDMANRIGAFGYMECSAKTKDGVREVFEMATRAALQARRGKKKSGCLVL

Experiments:
[1] = target: Flag-tagged NEDD8 (UniProt Q15843); test: co-IP; lysates of HEK293T cells expressing Flag-NEDD8; Co-IP buffer, antibody overnight at 4 °C, protein A magnetic beads; blot for RhoA
[2] = target: endogenous NEDD8 (HK-2 cells) (human (endogenous in HK-2)) (UniProt Q15843); test: co-IP; endogenous proteins in HK-2 lysate; IP with anti-NEDD8 antibody, protein A magnetic beads; blot for RhoA

RhoA (in HEK293T lysate) (from UniProt P61586 1-193)
binding [1]: binds

endogenous RhoA (HK-2 cells) (from UniProt P61586 1-193)
binding [2]: binds
